# “And” between values parts separate entries of the source, which are not always exact repeats. Equal values may be shown once. Some of the results follow. For some assays here: Construct or isoform of the protein are uncertain.
# How the values were obtained:
# Test in all cases: protein microarray (ProtoArray v5.0), streptavidin-Alexa Fluor 647
# Settings in all cases: 3'-biotin; 20 mM Tris (pH 7.5), 5 mM MgCl2, 100 mM KCl, 0.1% Tween-20, A/T-rich and random oligonucleotide blockers; temperature not stated; high values mean tight binding
# Uromodulin (human) = test system: Uromodulin (human)
# [1] = test system: V-type proton ATPase 16 kDa proteolipid subunit (human)
# [2] = test system: V-type proton ATPase subunit F (human)
# [3] = test system: V-type proton ATPase subunit e 1 (human)
# VAC14 (human) = test system: VAC14 (human)
# VAMP1 (human) = test system: VAMP1 (human)
# VAMP2 (human) = test system: VAMP2 (human)
# VAMP3 (human) = test system: VAMP3 (human)
# VAMP4 (human) = test system: VAMP4 (human)
# VAMP5 (human) = test system: VAMP5 (human)
# VANGL1 = biological target: T1, VANGL1 (UniProt Q8TAA9)
# T1 sequence: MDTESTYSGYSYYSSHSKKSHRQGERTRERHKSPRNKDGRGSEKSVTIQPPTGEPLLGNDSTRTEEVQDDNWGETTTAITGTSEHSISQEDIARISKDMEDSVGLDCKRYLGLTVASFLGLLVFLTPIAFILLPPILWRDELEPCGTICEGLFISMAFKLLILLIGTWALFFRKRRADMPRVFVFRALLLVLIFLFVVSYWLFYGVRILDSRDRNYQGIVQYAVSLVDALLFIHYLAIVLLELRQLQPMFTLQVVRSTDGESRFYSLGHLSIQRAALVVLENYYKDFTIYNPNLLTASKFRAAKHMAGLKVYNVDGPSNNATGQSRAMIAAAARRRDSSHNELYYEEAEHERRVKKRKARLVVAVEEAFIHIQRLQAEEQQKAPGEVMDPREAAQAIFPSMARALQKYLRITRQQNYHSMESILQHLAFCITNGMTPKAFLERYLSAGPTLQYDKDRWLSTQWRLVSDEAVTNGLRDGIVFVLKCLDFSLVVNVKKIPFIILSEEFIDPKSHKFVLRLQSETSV
# VAPA (human) = test system: VAPA (human)
# VAPB (human) = test system: VAPB (human)
# VDAC1 (human) = test system: VDAC1 (human)
# VDP (human) = test system: VDP (human)
# VEGFA (human) = test system: VEGFA (human)
# VENTX (human) = test system: VENTX (human)
# VHL (human) = test system: VHL (human)
# VKORC1 (human) = test system: VKORC1 (human)
# VNN3 (human) = test system: VNN3 (human)
sequence,measurement,setting,value
GGGAGGCTGAGGCAGG [G4-1 biotinylated (PQS2)],binding signal,Uromodulin (human),-0.331 z-score
same,binding signal,[1],-0.343 z-score
same,binding signal,[2],-0.361 z-score
same,binding signal,[3],-0.348 z-score
same,binding signal,VAC14 (human),-0.349 z-score
same,binding signal,VAMP1 (human),-0.275 z-score and -0.321 z-score
same,binding signal,VAMP2 (human),-0.321 z-score
same,binding signal,VAMP3 (human),-0.327 z-score and -0.238 z-score
same,binding signal,VAMP4 (human),-0.291 z-score and -0.279 z-score
same,binding signal,VAMP5 (human),-0.34 z-score
same,binding signal,VANGL1,-0.336 z-score
same,binding signal,VAPA (human),-0.326 z-score
same,binding signal,VAPB (human),-0.333 z-score
same,binding signal,VDAC1 (human),-0.264 z-score
same,binding signal,VDP (human),-0.29 z-score
same,binding signal,VEGFA (human),-0.315 z-score
same,binding signal,VENTX (human),-0.275 z-score
same,binding signal,VHL (human),-0.298 z-score
same,binding signal,VKORC1 (human),-0.301 z-score
same,binding signal,VNN3 (human),-0.296 z-score

# Laid out differently: entries from further up.
sequence	measurement	setting	value
GGGAGGCTGAGGCAGG [G4-1 biotinylated (PQS2)]	binding signal	VAMP1 (human)	-0.275 z-score and -0.321 z-score
same	binding signal	VAMP2 (human)	-0.321 z-score

# From article PMC5996148
